From publication PMC2684828 (Analytical chemistry, 2009) come the findings set out here.

In the experiment the target is T1, Cytochrome P450cam (CYP101) (Pseudomonas putida, UniProt P00183).
T1 sequence (P00183 2-415): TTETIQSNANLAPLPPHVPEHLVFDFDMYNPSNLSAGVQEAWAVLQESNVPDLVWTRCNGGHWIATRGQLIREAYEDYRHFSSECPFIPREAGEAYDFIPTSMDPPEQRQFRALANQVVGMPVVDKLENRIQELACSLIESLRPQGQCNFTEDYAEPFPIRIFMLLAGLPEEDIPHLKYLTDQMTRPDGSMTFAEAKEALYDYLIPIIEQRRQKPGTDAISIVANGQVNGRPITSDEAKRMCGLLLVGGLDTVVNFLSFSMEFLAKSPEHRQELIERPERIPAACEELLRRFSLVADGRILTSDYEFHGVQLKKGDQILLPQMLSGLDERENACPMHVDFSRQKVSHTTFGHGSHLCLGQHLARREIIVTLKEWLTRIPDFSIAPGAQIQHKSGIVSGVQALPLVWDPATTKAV
The experiment in a line: enzyme/DNA film biosensor. It counts as biochemical.

Regarding `Clc1ccc(CSC(Cn2ccnc2)c2ccc(Cl)cc2Cl)cc1` (stereo not shown) [Sul., sulconazole], the Ki (in general, a dissociation constant, usually derived from enzyme kinetics or from competition with a known ligand) turned out to be 204 µM.
